In publication PMC10163288:
Some of the results follow.

B1: il2ra_site2_2erj_normal_mot_HHH_b1_01341_af2_000000245_0001_42_57_H_._HEEHE_1349_0001_0000400011_0000001_0_af2pred_0001_af2pred (protein)
chain: SDDEFLERAVEELAKAAGVPSVEVTVENNRIEVTIEGDDELARYASEILENVARWLGVELEVRVE
B2: il2ra_site2_2erj_normal_mot_HHH_b2_07139_000000086_0001_40_57_H_._HHH_b1_03178_af2_0001_0000900021_0000001_0 (protein)
chain: SSSSDERLREIFELLSKVAQALYEGNPEEAERLIEEARKVIEELNSENARELLEWLERHAESSSS
B3: il2ra_site1_3nfp_sap_10_mot_HHH_b1_03195_af2_000000163_0001_42_58_H_._HHH_b2_02207_0001_0000600013_0000001_0_0001 (protein)
chain: SSSSDQEAADELYELIKALIELAREGDEEEAEKVLKRLEELAKELGDEDAERAVEFLRRANSSSS
B4: il2ra_site2_3nfp_normal_mot_HHH_b1_01086_000000225_0001_20_36_H_._HHH_b1_05252_0001_0000300013_0000001_0 (protein)
chain: SSSSEEEELERLLERIKELLEQGNLEEARELLRKVTHLAFKANDFEVFAAVADLSFLLFELNSSS
B5: il2ra_site2_2erj_normal_mot_ems_3hM_1508_000000265_0001_1_20_H_._HHH_b2_01938_af2_0001_0000500037_0000001_0 (protein)
chain: SSSSSDEEERVLELLQEALEVQDEERFEELLREAKELAEELGDEELRLMIEVLERYRERLSSSSS
B6: il2ra_site2_3nfp_normal_mot_HHH_b1_05437_000000005_0001_40_57_H_._HHH_b1_02280_0001_0000400026_0000001_0 (protein)
chain: SSSSSSSEEERRVEELIEELRHVDEEERKRLLQEATHLAYENRNFELFAILAEELYKLASSSSSS
B7: il2ra_site1_3nfp_sap_19_mot_HHH_b1_02637_af2_000000026_0001_1_18_H_._HHH_b1_03532_0001_0000300009_0000001_0_0001 (protein)
chain: SSSSSSDEEEVERLLEEAKHIEDPEEAARILEEAYRIAQEAKNQELADEIYKVLREIISSSSSSS
B8: il2ra_site1_3nfp_normal_mot_HHH_b1_03476_af2_000000029_0001_1_17_H_._7d14571b405f2e878e8a4f9002b40290_0001_1_0001_0000400021_0000001_0_af2pred_0001_af2pred_1 (protein)
chain: SLEEVEERLEKILGDPELAKLLVEALELFERGDPRQAARVLRELAKLLGDFREVFKLAKRVAELL
B9: il2ra_site1_2b5i_normal_mot_3116615af0ee64d731c1c85d8523bf51_0001_000000216_0001_15_32_H_._HHH_b2_02169_0001_0000700016_0000001_1_af2pred_dldesign_0_af2pred (protein)
chain: SSSSSNAREEVERLIEEAKKLKNKREAFETLTKAHALASAAGDDELQDRVEELFSELSKKSSSSS
B10: il2ra_site2_2erj_sap_27_mot_HHH_b1_01239_000000175_0001_43_57_H_._59747a5255cd687c2960285eb4440dff_0001_1_af2_0001_0000600010_0000001_0_0001 (protein)
chain: SSSSSSSLLEEAEEEIERLLEEGNAEEALRLAYEVANELLRRDLELAREFLERAQELFSSSSSSS
B11: il2ra_site1_1z92_sap_14_mot_HHH_b2_05238_af2_000000252_0001_38_55_H_._HHH_b1_03322_0001_0000400015_0000001_0_0001_af2pred_0001_af2pred_1 (protein)
chain: SELEEILEEVLKLVPNPRVREFLREQLERKLKLGDEESAIRLALHVAEQAGDPELAEELRKLLEP
B12: il2ra_site1_3nfp_normal_mot_HHH_b1_07204_af2_000000238_0001_41_55_H_._HHH_b1_04029_af2_0001_0000200007_0000001_0 (protein)
chain: SSSSSEEYEEALKLSRELKELLREGDEEEIRRVAEELEKLARELNDPIAERLVEDVLRSASSSSS
B13: il2ra_site1_2b5i_normal_mot_HHH_b1_06312_000000036_0001_42_56_H_._HHH_b2_04237_0001_0000100004_0000001_0_af2pred_dldesign_0_af2pred (protein)
chain: SSSSSLGKEARETMLEANRLYQAGKPEEAKALLEKMLEKLKAAGKEGMVKKMERLLKLVLESSSS
B14: il2ra_site1_1z92_normal_mot_HHH_b2_04090_000000052_0001_1_16_H_._HHH_b2_04723_0001_0000100003_0000001_0 (protein)
chain: SSSSSTAEKLSEFLFEQLKRKLELGNEKAVKRVSEMARKQAEESKDEELEKLVEEAERFLSSSSS
B15: il2ra_site2_2erj_normal_mot_4b0744c440632e7b239d8b54ed7c44c2_0001_af2_000000182_0001_16_31_H_._HHH_b1_02773_0001_0000200005_0000001_0 (protein)
chain: SSSSSSSDEEEVERLLEEAEKIPDERELFKLLNEAQHIAARLRDPELLRLILEFLRRFSSSSSSS
B16: il2ra_site2_2erj_sap_28_mot_ems_3hM_1508_000000265_0001_1_20_H_._113ce01fecf454417ad6f831214e9432_0001_af2_0001_0000500015_0000001_0_0001 (protein)
chain: SSSSSDQREVARRVSELLAEAAHVSEEERKELLEEARRLAEEANDPTLERYIELAARHAKSSSSS
B17: il2ra_site1_2b5i_sap_13_mot_HHH_b2_06055_af2_000000048_0001_1_19_H_._HHH_b1_06687_af2_0001_0000300028_0000001_0_0001_af2pred_dldesign_0_af2pred (protein)
chain: SSSSSPEKEKALKLFLEADKLKKAGKEEEAKKKLEEALKLAEKGKAPTLVKIIKSALEDLESSSS
B18: il2ra_site2_2erj_normal_mot_HHH_b2_07139_000000086_0001_40_57_H_._HHH_b1_02677_af2_0001_0000400010_0000001_0 (protein)
chain: SSSSDESVKAAEELAEKAHERGDEEELRLLLRFAERSAERTKDPELERLVEEIEELLERLRSSSS
B19: il2ra_site1_3nfp_sap_12_mot_HHH_b2_05589_af2_000000060_0001_42_57_H_._HHH_b2_06542_0001_0000700021_0000001_0_0001 (protein)
chain: SSSSDRADRIYKLMRAMIEAQKRGDDELVKELLEEVKELAKEAGDEVLERDIEWAERAYGSSSSS
B20: il2ra_site1_2b5i_sap_8_mot_HHH_b2_00070_000000071_0001_43_56_H_._HHH_b1_07198_0001_0000500020_0000001_0_0001_af2pred_dldesign_0_af2pred (protein)
chain: SSSSDPFELAERAFDTALKLHKEGKKEEAKKVLEEAIEELKKLKDDKHVAELELLLKRVLASSSS
B21: il2ra_site1_2b5i_normal_mot_HHH_b1_02271_000000068_0001_1_16_H_._HHH_b2_03359_af2_0001_0000400009_0000001_0_af2pred_dldesign_0_af2pred (protein)
chain: SSSSSNSEKVKALIEEAKKLKDRREALKKLEEAKKLADDADDEELSDEVEKLAKELFKKSSSSSS
B22: il2ra_site1_1z92_sap_11_mot_0a54d8a7266968de9ae0346ffe2baff0_0001_af2_000000020_0001_37_50_H_._2f69edf39d0b4cbfc537af338e4f3bc0_0001_af2_0001_0000300009_0000001 … (protein)
chain: SMIERDVRAAKKLGIPPEKIVMALVRALADVHNVPPEEAIEILLELLEELGDPLREVVEELLERK
B23: il2ra_site1_2b5i_sap_11_mot_HHH_b1_08504_af2_000000158_0001_42_54_H_._HHH_b2_03078_af2_0001_0000100008_0000001_0_0001 (protein)
chain: SSSSDDQELQELFHEASRVFRKGDLEKAKEILQEALELAEELNDEKAAEDLRFFLEWIEISSSSS
B24: il2ra_site1_2b5i_normal_mot_22370d59370c406a0c205a431f537cfa_0001_af2_000000027_0001_1_31_H_._HHH_b1_06542_af2_0001_0000200014_0000001_0 (protein)
chain: SSSSDEETRFAAEVVAKLSEEFNLDAEQDNALIRLATELLWRGVSPEEIERLLEELAERLSSSSS

Biological target: il2ra, P01589
Test: yeast display titration

Apparent Kd, inactive:
B1 no binding seen
B2 no binding seen
B3 no binding seen
B4 no binding seen
B5 no binding seen
B6 no binding seen
B7 no binding seen
B8 no binding seen
B9 no binding seen
B10 no binding seen
B11 no binding seen
B12 no binding seen
B13 no binding seen
B14 no binding seen
B15 no binding seen
B16 no binding seen
B17 no binding seen
B18 no binding seen
B19 no binding seen
B20 no binding seen
B21 no binding seen
B22 no binding seen
B23 no binding seen
B24 no binding seen

2 entries drawn at random from those above:
Apparent Kd, inactive:
B6 no binding seen
B4 no binding seen
